In all, about 52,000 sequences went through this assay and about 210 (0.4%) were called active.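 The calls were made as follows: active = gene whose silencing raises cell survival under the drug, median off-target-corrected z-score across its silencing RNAs 2 or more; inactive = the rest.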 The list shows a part of the results.
assay: Resistance to Poly (ADP-Ribose) Polymerase inhibitor: Gene Identification via Genome-wide siRNA Screen; details: mouse BRCA2 R2336H ES cells, olaparib, CellTiter-Glo viability; stronger effect = higher value
Summary of the method: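 Mouse BRCA2 R2336H ES cells were reverse-transfected with siRNA (20 nM final), treated at 48 h with 500 nM olaparib, and read by CellTiter-Glo after 72 h. Scores: MAD-based z per siRNA, median per gene, seed off-target correction.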

Q: For GGUGGUAAUUUUUCUCAGATT against Agxt2, which z-score is on record?
A: inactive: 0.321

Q: With GCUCUAUGAAGUGAUGACGTT against Amph as the sequence, how does the z-score read?
A: inactive: -0.189

Q: For GGACAUAGUGCACAAAGAGTT against Yif1, which z-score is on record?
A: inactive: -0.599

Q: For GGAACUGAUAAACUACUCUTT against Olfr1126, which z-score is on record?
A: inactive: -0.308

Q: With GGCUAUACAGUCUCUGAAATT against Smu1 as the sequence, how does the z-score read?
A: inactive: -3.33

Q: For CGAAAGGCCCAUGAAUAAATT against Ascc2, which z-score is on record?
A: inactive: 0.412

Q: Which z-score does the source give for GGACACGUUUCUGUGUUGUTT against Phemx here?
A: inactive: 1.28

Q: For “GCAUUAGAUAGCUGAUGGCTT against 9330132A10Rik”, which z-score is on record?
A: inactive: -0.181

Q: With “GGUGUACCCUGAAUUUGAATT against 2310038K02Rik” as the sequence, how does the z-score read?
A: inactive: 0.205

Q: With GGUGUGUGGAUCCUCAUGUTT against Chrdl2 as the sequence, how does the z-score read?
A: inactive: -1.43

Q: Which z-score does the source give for GGACCUCGAGGACUUGUUCTT against Sfrs9 here?
A: inactive: 0.308

Q: Which z-score does the source give for GGUAGACAGUGAGUCGGAATT against Trim44 here?
A: inactive: -0.554

Q: Which z-score does the source give for GCUGUUAUGCAACAUAUAGTT against Mef2c here?
A: inactive: -0.913

Q: With GGAAAGAUGAGACAGCCUCTT against Impg1 as the sequence, how does the z-score read?
A: inactive: 0.532

Q: Which z-score does the source give for CCUACCAGUGACUGCUACATT against MGC67174 here?
A: inactive: -1.67

Q: Which z-score does the source give for CCGUUUUUGUGGUUCAGUGTT against Plxdc1 here?
A: inactive: -0.264

Q: With “GGAUCUCUAUAUGUGGCUUTT against 1110064N10Rik” as the sequence, how does the z-score read?
A: inactive: 0.0315

Q: Which z-score does the source give for CCAGAUGGAAAGCGAAAAATT against Thra here?
A: inactive: -0.993

Q: With “GGAAUUAAAUCCUAGCUGATT against 0610041E09Rik” as the sequence, how does the z-score read?
A: inactive: 0.158

Q: For “GGCAUAUGCACUUUAUUUCTT against 2810403B08Rik”, which z-score is on record?
A: inactive: 0.0365

Q: Which z-score does the source give for GCGAGUGCUUGGCUAUUAUTT against Ckap2 here?
A: inactive: -1.46

Q: For “GGUAUUUUUGCAUUUGUCCTT against 2610319K07Rik”, which z-score is on record?
A: inactive: -0.0518

Q: For “GGUGCUGGUGGACAUUGCATT against 2810055F11Rik”, which z-score is on record?
A: inactive: -2.2

Q: For “CCUUCAACUAUGGCAAAUATT against 2700078E11Rik”, which z-score is on record?
A: inactive: -2.32

Q: Which z-score does the source give for GCUUGUUGAAAGGCCGAGCTT against Ankmy2 here?
A: inactive: 0.589

Q: With “CCUGAGCUAGAAUCUCAGATT against 2610510D14Rik” as the sequence, how does the z-score read?
A: inactive: 0.0638

Q: Which z-score does the source give for “GGAAUGGAAUAGAUGCUCATT against C330014B19Rik” here?
A: inactive: 1.79

Q: For GGCCCAGAACCGCAUUAAATT against Pdlim4, which z-score is on record?
A: inactive: -0.395

Q: Which z-score does the source give for “GCCUAAGCCCUUAAAGCGUTT against D630045E04Rik” here?
A: inactive: -1.32

Q: For GCCCAUUACCAAGCACAUCTT against Psma2, which z-score is on record?
A: inactive: -0.7

Q: Which z-score does the source give for GCUACAAGUGUUGCCUGAATT against Slit1 here?
A: inactive: -0.505

Q: For GAAUCUAGAAAAGUGGUGCTT against Sprrl7, which z-score is on record?
A: inactive: -0.119

Q: For GGAUAUCAUCGUGUUUAUUTT against Vps45, which z-score is on record?
A: inactive: 1.12

Q: Which z-score does the source give for GCUCAACAAGGAUACGGUGTT against Tnfrsf11a here?
A: inactive: -1.79

Q: With GGCCAUCAUGAAGAUUGCCTT against Htr2c as the sequence, how does the z-score read?
A: inactive: 0.298

Q: For GCAUCUGCAUUUUUUGCUATT against Prox1, which z-score is on record?
A: inactive: 1.93

Q: For GCAGAAACAAGGUUGAGAATT against Tgm6, which z-score is on record?
A: inactive: 0.383

Q: With GGGAGCUGUUAACCUCAUCTT against Mthfr as the sequence, how does the z-score read?
A: inactive: -0.244

Q: For GCACAAAUUCAUCACACGATT against Stk25, which z-score is on record?
A: inactive: 0.353

Q: With GCCUCUCGGUUAAUUGAUCTT against Xlkd1 as the sequence, how does the z-score read?
A: inactive: 0.769

Q: With CGGAACCUUACAUUAAAUGTT against Tada2l as the sequence, how does the z-score read?
A: inactive: 0.154

Q: With “GGCUGAAGAACUCCUACAATT against 4432409M07Rik” as the sequence, how does the z-score read?
A: inactive: -0.763

Q: With “GGAGUUCCUCAUGAAGAUGTT against 6030446N20Rik” as the sequence, how does the z-score read?
A: inactive: -0.494

Q: For “GGAGCUCCAGCUUCUUGAATT against E130309D02Rik”, which z-score is on record?
A: inactive: -1.97

Q: For “GCCCUGUACAGUCAGUACATT against 2510003E04Rik”, which z-score is on record?
A: inactive: 1.13

Q: Which z-score does the source give for GGAUCUCAAGAGUGUUGUUTT against Rnf10 here?
A: inactive: -1.04

Q: Which z-score does the source give for GGAGUUUGAGGAAGAUCUGTT against Rbp1 here?
A: inactive: 0.352

Q: Which z-score does the source give for GGCCUCACUUGGAUCCUUATT against Zfx here?
A: inactive: 0.224

Q: Which z-score does the source give for GGACUAGAUAUCACUUUUUTT against Mgea5 here?
A: inactive: -0.215

Q: For GGAUAUCCCAUCUCCUGUUTT against D1Wsu40e, which z-score is on record?
A: inactive: -1.76

Q: With GGACACUUACGUCAUCGAGTT against Rtcd1 as the sequence, how does the z-score read?
A: inactive: 0.282

Q: With GGAUAAAACCAGAACUCUATT against Syt10 as the sequence, how does the z-score read?
A: inactive: 1.98

Q: For “GCGGACCACCAUUAUCCUUTT against 2010003I19Rik”, which z-score is on record?
A: inactive: -0.497

Q: For GGUCACUGUGCAAUGAAAATT against Olfr435, which z-score is on record?
A: inactive: -0.172

Q: For “GGGCUUUUUCUUGUUUUUCTT against 6720456B07Rik”, which z-score is on record?
A: inactive: 0.221

Q: For GGAGAGACGUAAGAGGCGATT against U2af1-rs2, which z-score is on record?
A: inactive: -0.975

Q: For GGAUCAUGGGUAUGGUACUTT against Dhx36, which z-score is on record?
A: inactive: -0.384

Q: Which z-score does the source give for “CGGAUUAUUGGUUAGAAAUTT against C230013L11Rik” here?
A: inactive: -0.272

Q: Which z-score does the source give for GCCCAACACUUGUUAAAGCTT against Fdxr here?
A: inactive: -0.342

Q: Which z-score does the source give for GCCGAGCUCAAUGUGGGUATT against Bsn here?
A: inactive: -0.182

Q: With CUUCUGAAUCCAGUGCCCATT against AI316787 as the sequence, how does the z-score read?
A: inactive: 0.797

Q: Which z-score does the source give for CCUGUUGCUUACAAUUUUUTT against Yy1 here?
A: inactive: 1.54

Q: With GGACAACAACGAGACCUAATT against Osbpl11 as the sequence, how does the z-score read?
A: inactive: -0.454

Q: For GGAGAUCUAUGACAAGAAATT against Idh1, which z-score is on record?
A: inactive: 1.11

Q: For GGCGCAUGUUUCCAGCAAUTT against Tbx18, which z-score is on record?
A: inactive: 1.87

Q: Which z-score does the source give for GCAUUAUUCAUAUGUUGGUTT against Fpr-rs4 here?
A: inactive: -0.102

Q: For GGACCACUUUUUCAGACUCTT against Garnl1, which z-score is on record?
A: inactive: -1.01

Q: For GGCUUUUCUGGCUAUCCACTT against Anxa7, which z-score is on record?
A: inactive: -1.47

Q: With GGAUCUUGAACAAACCUGGTT against Akr1b3 as the sequence, how does the z-score read?
A: inactive: 0.754

Q: For GCCGACAGAUUGAAAUUCGTT against Supv3l1, which z-score is on record?
A: inactive: -0.911

Q: With GAAAAAUCAAAGAGAUUGGTT against Slc26a11 as the sequence, how does the z-score read?
A: inactive: 0.244

Q: For “GGAAAACAUGUUCUCAUCUTT against 4930433N12Rik”, which z-score is on record?
A: inactive: 1.53

Q: For GGAAACAUGAUGUUUUAAGTT against Bcl9, which z-score is on record?
A: inactive: 1.41

Q: With GGCCAUGACGAGGAAGAUGTT against Sv2b as the sequence, how does the z-score read?
A: inactive: 0.312

Q: For GCAGCUUAUCUACCUGUACTT against Chad, which z-score is on record?
A: inactive: -0.751

Q: For GGAUUUGACCGUAAAAAGATT against Pcsk2, which z-score is on record?
A: inactive: -0.417

Q: For “GGCAGGUGAAUGUGGUAGATT against 1500005I02Rik”, which z-score is on record?
A: inactive: -0.0858

Q: With GGCAUCGAGAUUUAAUUGATT against Usp27x as the sequence, how does the z-score read?
A: inactive: -0.851

Q: For GAUAUAGCCACAGUGUUUUTT against V1ri2, which z-score is on record?
A: inactive: -0.0251

Q: With “GGAGACUCUUCAAUUGAGCTT against 1700025K23Rik” as the sequence, how does the z-score read?
A: inactive: -0.0959

Q: Which z-score does the source give for CGUACUAUAUCAAAGAACATT against Ssa2 here?
A: inactive: -0.301

Q: Which z-score does the source give for GGCUCAAAGUCCUCAGAGCTT against Atp6v1e1 here?
A: inactive: -0.25

Q: With GGACACAGAAAAAGUUGAATT against Tbc1d4 as the sequence, how does the z-score read?
A: inactive: 1.47

Q: Which z-score does the source give for GCAUAUGACACCGUAUCAGTT against Gprc5d here?
A: inactive: 1.91

Q: For GGCCAAAAGAACAAGGUUCTT against AW822216, which z-score is on record?
A: inactive: 0.118

Q: For GGACAACACACCAUUUCUCTT against Pcbp1, which z-score is on record?
A: inactive: -1.6

Q: Which z-score does the source give for GGACUUCGUGAACAAGAUCTT against Grin2b here?
A: inactive: -0.244

Q: For GGUGAUUGACACCAAAUCUTT against Slk, which z-score is on record?
A: inactive: -0.398

Q: For GCAAUUUCCAGAAGUUAUCTT against Baz2a, which z-score is on record?
A: inactive: 0.0352

Q: Which z-score does the source give for GGACUGGUUCACUUUGUGGTT against Cox7a2l here?
A: inactive: 2.76

Q: Which z-score does the source give for GGAAGAUUCAUGAGAUAUUTT against Prdm5 here?
A: inactive: -1.24

Q: For CCCAGUAAUAUGAAAAGAGTT against Gucy2f, which z-score is on record?
A: inactive: 0.464

Q: Which z-score does the source give for CGGACUUGAGAGCAGAACCTT against Oit1 here?
A: inactive: -0.929

Q: For “GCUAGAUAUCCGGAACCAATT against 1500032D16Rik”, which z-score is on record?
A: inactive: 0.192

Q: With GCACACUCACUUGGUUCGUTT against Dsg2 as the sequence, how does the z-score read?
A: inactive: 2.21

Q: Which z-score does the source give for CGGUGUUCAACUGCACUUUTT against Thsd1 here?
A: inactive: 0.977

Q: For CCUCAUGGAUGUUCGUAGATT against P2ry10, which z-score is on record?
A: inactive: 0.121

Q: With GGUUGCACAAAAGAAGCUGTT against Pemt as the sequence, how does the z-score read?
A: inactive: -0.0239

Q: With GGAUUCAGGAGUUCAUUGATT against Maea as the sequence, how does the z-score read?
A: inactive: -1.09

Q: Which z-score does the source give for GGAACUUUUUCAGAGCUCUTT against Senp3 here?
A: inactive: -1.61

Q: Which z-score does the source give for CCGGAGUUAUACCGUAAGATT against Plaur here?
A: inactive: 1.01

Q: With “GCUAGAGAUCCGGAUUAAGTT against A930018P22Rik” as the sequence, how does the z-score read?
A: inactive: 0.783

Q: Which z-score does the source give for CCGGAUAUUUAUCAGUGAUTT against Tiam2 here?
A: inactive: -1.03

Q: With GGGAUCAAAACAUACUGUGTT against Klra4 as the sequence, how does the z-score read?
A: inactive: -0.682

Reference: PubChem BioAssay AID1347423 (Functional Genomics Laboratory (NCATS/FGL), 2020)
